The target of this test is Zhangfei, tagged at its amino terminus with a FLAG epitope (UniProt Q9NS37). As to the kind of experiment: co-IP; Vero cells transfected with Xbp1s and FLAG-Zhangfei (or ZF(L/A)), 5 uM MG132 for 24 h; lysis in 50 mM Tris pH 7.5, 150 mM NaCl, 1 mM EDTA, 0.1% Triton X-100; mouse anti-FLAG and protein A/G agarose at 4 C; blots with rabbit anti-Xbp1 or anti-ZF.

Sequences of proteins named here, by UniProt entry; tags and fusion partners are left off. A change or cut given only in a name is not applied to a line headed by its entry.
UniProt Q9NS37: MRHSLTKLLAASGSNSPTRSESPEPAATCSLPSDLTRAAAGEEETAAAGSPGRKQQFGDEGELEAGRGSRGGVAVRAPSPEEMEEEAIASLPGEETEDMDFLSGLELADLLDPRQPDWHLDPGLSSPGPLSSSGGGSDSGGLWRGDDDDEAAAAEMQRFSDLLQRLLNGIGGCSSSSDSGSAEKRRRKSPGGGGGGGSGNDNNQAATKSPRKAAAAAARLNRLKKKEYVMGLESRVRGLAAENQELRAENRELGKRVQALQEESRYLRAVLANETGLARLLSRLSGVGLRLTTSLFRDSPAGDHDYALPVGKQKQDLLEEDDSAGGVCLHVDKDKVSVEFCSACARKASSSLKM

Results are given in words; binding and its absence hold for the method and conditions named. In cells and extracts the contact can be indirect. Binding calls can cover weak binding; strength is not graded here.

B1: spliced X-box binding protein (Xbp1s) (protein, UniProt P17861-2 1-376)
chain: MVVVAAAPNPADGTPKVLLLSGQPASAAGAPAGQALPLMVPAQRGASPEAASGGLPQARKRQRLTHLSPEEKALRRKLKNRVAAQTARDRKKARMSELEQQVVDLEEENQKLLLENQLLREKTHGLVVENQELRQRLGMDALVAEEEAEAKGNEVRPVAGSAESAAGAGPVVTPPEHLPMDSGGIDSSDSESDILLGILDNLDPVMFFKCPSPEPASLEELPEVYPEGPSSLPASLSLSVGTSSAKLEAINELIRFDHIYTKPLVLEIPSETESQANVVVKIEEAPLSPSENDHPEFIVSVKEEPVEDDLVPELGISNLLSSSHCPKPSSCLLDAYSDCGYGGSLSPFSDMSSLLGVNHSWEDTFANELFPQLISV
Take B1: the binding entry is “binds”.
